Measurements reported in PubChem BioAssay AID652272 (Drosophila RNAi Screening Center, 2013)

- Assay: 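Finding fly genes that regulate Hedgehog signal transduction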 (primary screen)
- Cell system: Drosophila clone 8 (Cl8) cells
- Reagents: long dsRNA against Drosophila genes
- Read-out: 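Plate reader light from a firefly reporter under a ptc promoter fragment that responds to Hedgehog, with Renilla light as transfection reference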
- Scale: firefly Hh reporter signal: higher = more ptc reporter light; Renilla reference signal: higher = more Renilla control light
- Active means: 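Called a hit if the two-replicate mean z-score lies below -2 or above +3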
- Calls: active = hit: reporter lowered or raised; inactive = not a hit
The deposit covers about 21,000 reagents; this is an unselected part of those with a known target gene and a result. In the full data, 503 (2.4%) got an active call. 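Raw plate light values, not normalised; calls rest on replicate z-scores that were not deposited; hits include reporter decreases as well as increases.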 A plus sign joins genes that one reagent is predicted to hit. Not given: the amount of reagent, the time to read-out.

gene	amplicon	firefly Hh reporter signal, replicate 1	firefly Hh reporter signal, replicate 2	firefly Hh reporter signal, replicate 3	Renilla reference signal, replicate 1	Renilla reference signal, replicate 2	activity call
CG9040 (GeneID 39546)	DRSC11053	92269			2605	2838	inactive
sloth2 + sloth1	DRSC17922	93415	2.74e5		3413	9664	inactive
sloth2 + sloth1	DRSC17923	1.04e5	3.67e5		3603	12864	inactive
Saysd1 (GeneID 43029)	DRSC14664	5.14e5	99760		25772	6872	inactive
PMCA (GeneID 43787)	DRSC17113	4.13e5	1.90e5		21760	4240	inactive
PMCA (GeneID 43787)	DRSC17114	4.41e5	2.16e5		22736	4565	inactive
PMCA (GeneID 43787)	DRSC17154	1.10e5	55097		2566	1853	inactive
Ced-12 (GeneID 34633)	DRSC02840	99728	45680		2528	4685	inactive
SPoCk (GeneID 40495)	DRSC11675	74338	1.36e5		2645	3819	inactive
SPoCk (GeneID 40495)	DRSC11706	64425	91275		2613	2375	inactive
SPoCk (GeneID 40495)	DRSC11844	84477	1.10e5		3141	2996	inactive
SPoCk (GeneID 40495)	DRSC11845	74248	84965		2800	2343	inactive
CG14696 (GeneID 41317)	DRSC14919	74789	1.04e5		2130	2705	inactive
Ugt35C1 (GeneID 53507)	DRSC16080	89610	1.23e5		2535	3545	inactive
Gnpnat (GeneID 43504)	DRSC15405	1.43e5	1.05e5		3456	2377	inactive
fz3 (GeneID 31023)	DRSC18779	76336	1.77e5		2813	6768	inactive
dpn (GeneID 35800)	DRSC07605	75818	29699		2020	3237	inactive

6 successive entries already listed:
gene	amplicon	firefly Hh reporter signal, replicate 1	firefly Hh reporter signal, replicate 2	firefly Hh reporter signal, replicate 3	Renilla reference signal, replicate 1	Renilla reference signal, replicate 2	activity call
PMCA (GeneID 43787)	DRSC17154	1.10e5	55097		2566	1853	inactive
Ced-12 (GeneID 34633)	DRSC02840	99728	45680		2528	4685	inactive
SPoCk (GeneID 40495)	DRSC11675	74338	1.36e5		2645	3819	inactive
SPoCk (GeneID 40495)	DRSC11706	64425	91275		2613	2375	inactive
SPoCk (GeneID 40495)	DRSC11844	84477	1.10e5		3141	2996	inactive
SPoCk (GeneID 40495)	DRSC11845	74248	84965		2800	2343	inactive

More results follow:
gene	amplicon	firefly Hh reporter signal, replicate 1	firefly Hh reporter signal, replicate 2	firefly Hh reporter signal, replicate 3	Renilla reference signal, replicate 1	Renilla reference signal, replicate 2	activity call
nab (GeneID 3346237)	DRSC08455	76695	64678		3184	4177	inactive
nab (GeneID 3346237)	DRSC08456	1.02e5	63680		2436	3664	inactive
CG13806 (GeneID 38292)	DRSC08341	66134	42960		1760	2243	inactive
aspr (GeneID 33013)	DRSC20689	77498	2.66e5		3043	10016	inactive
aspr (GeneID 33013)	DRSC20690	91482	2.01e5		3472	7954	inactive
Rpt3R (GeneID 41190)	DRSC16501	44480	74738		1403	2400	inactive
Rab3-GAP (GeneID 34626)	DRSC02001	1.52e5	89008		6247	4104	inactive
par-1 (GeneID 2768852)	DRSC05792	40165	86486		1963	5272	active
par-1 (GeneID 2768852)	DRSC06098	88726	77778		1810	4964	inactive
par-1 (GeneID 2768852)	DRSC06616	88493	85842		4774	3846	inactive
par-1 (GeneID 2768852)	DRSC07660	74653	72027		2323	5560	inactive
par-1 (GeneID 2768852)	DRSC07661	78976	75324		2204	5379	inactive
CG9993 (GeneID 37358)	DRSC04599	85472	52468		2544	5123	inactive
CG4592 (GeneID 34317)	DRSC02761	1.82e5	93428		6297	4203	inactive
CG7137 (GeneID 37204)	DRSC07017	94506	58608		5682	2557	inactive
CG16710 (GeneID 42790)	DRSC15136	5.39e5	1.25e5		29440	3875	inactive
CG6574 (GeneID 41308)	DRSC16070	48214	89936		1842	2592	inactive
CG2972 (GeneID 31943)	DRSC18250	71243	63251		1505	1655	inactive
CG43318 (GeneID 12798422)	DRSC14999	62109	83112		1698	2228	inactive
CG42372 + CG30100	DRSC05602	1.72e5	2.13e5		4853	9712	inactive
Listericin (GeneID 36183)	DRSC07334	1.06e5	59321		2765	4844	inactive
SmydA-4 (GeneID 32034)	DRSC19390	1.31e5	5.75e5	3.18e5	4148	5240	inactive
